These are yes or no findings as the source states them, for the method shown. In cells and extracts the contact can be indirect. Some results given as binding are weak or reduced against the parent protein; the word gives no strength.
Biological target: biotin-labeled p63 peptide (last 63 amino acid residues of human nucleolin, RGG carboxy-terminal domain) (human)
Test: pull-down; only the target purified

Amino acid sequences for entries named in this document (tags omitted).
UniProt Q2A1M0: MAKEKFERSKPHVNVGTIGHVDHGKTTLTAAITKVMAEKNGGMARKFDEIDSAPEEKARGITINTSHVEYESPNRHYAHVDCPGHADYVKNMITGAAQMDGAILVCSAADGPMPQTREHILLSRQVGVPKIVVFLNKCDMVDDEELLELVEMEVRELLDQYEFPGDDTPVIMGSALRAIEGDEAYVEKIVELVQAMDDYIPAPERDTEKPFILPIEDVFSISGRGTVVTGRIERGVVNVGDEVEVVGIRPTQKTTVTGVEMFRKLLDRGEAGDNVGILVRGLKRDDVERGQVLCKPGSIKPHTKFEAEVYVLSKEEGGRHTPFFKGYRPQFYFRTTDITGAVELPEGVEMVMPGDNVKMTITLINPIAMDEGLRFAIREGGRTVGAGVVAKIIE

elongation factor Tu (EF-Tu) present in Francisella tularensis LVS membrane proteins (from UniProt Q2A1M0 1-394)
binding: binds

— paper PMC2551611
